Among all 400,000 compounds or so, about 5,500 (1.4%) were called active. Inconclusive means that the source gave no clear call. Such entries were picked first, then a sample of the others. Calls follow the shape of the dose curve; as a rule, active = well fitted cell-killing curve with a large enough effect; inconclusive = small, poorly fitted or top-dose-only effect, or effect the other way; inactive = flat fitted curve, though single readings scatter. Potencies beside an inconclusive call are fits to weak or partial responses and may not hold up.
Assay: qHTS assay for MDR1-selective chemotherapeutics: Primary screen using the parental adenocarcinoma cell KB-3-1; also: nearly all actives have a fitted effect of over 60% in size
Settings: KB-3-1 viability, CellTiter-Glo ATP luminescence, 72 h; activity change, negative = cytotoxic: at 46.1 µM (top of the series)
Method in brief: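 Multi-concentration cytotoxicity screen in KB-3-1 cells grown in DMEM lacking phenol red with 10% FBS. After 72 h at 37 °C with compound, ATP-dependent luminescence was recorded.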
% is scaled to controls: 0 for no effect and ±100 for the full control effect; potency is read from the fitted curve at half-maximal effect.

Row | Compound | Potency | activity change, negative = cytotoxic
1 | COc1cccc(/C=N/NC(=O)CSc2nnc(C)n2-c2ccccc2)c1O | inconclusive: 18.4 µM [cytotoxic, single point] | 
2 | COc1ccc(Cl)cc1NC(=O)CN(c1ccccc1)S(=O)(=O)N(C)C | inconclusive: 29.1 µM [cytotoxic, single point] | 
3 | O=C(Nc1ccc(Br)cc1F)c1cccnc1 | inconclusive: 7.31 µM [cytotoxic, partial curve, poor fit] | 
4 | COc1cc2c(NC3CCN(C(C)C)CC3)nc(N3CCCN(C)CC3)nc2cc1OCCCN(C)C | active: 2.31 µM | 
5 | NC(=O)C1CCN(C(=O)COc2ccc(S(=O)(=O)NCc3ccccc3)cc2Cl)CC1 |  | inactive: -4.44%
6 | Cc1ccc(-c2csc(=Nc3cccnc3)n2CCCN2CCCC2=O)cc1C | inconclusive: 29.1 µM [cytotoxic, single point] | 
7 | CC(C)(C)Nc1nc(NN)nc(NC(C)(C)C)n1 | inconclusive: 23.1 µM [cytotoxic, single point] | 
8 | COc1ccc(NS(=O)(=O)c2ccc3c(c2)CCCN3C(=O)C2CCC2)cc1OC | active: 2.59 µM | 
9 | Cc1ccc(NC(=O)C2CCN(C(=O)c3cnn(-c4ccccc4)c3-n3cccc3)CC2)cc1 | inconclusive: 25.9 µM [cytotoxic, single point] | 
10 | COc1cc2c(cc1NC(=O)CSc1nc3cc(Cl)ccc3s1)oc1ccccc12 | inconclusive: 29.1 µM [cytotoxic, single point] | 
11 | Cc1ccccc1OCC(=O)NNC(=S)NC(=O)c1ccccc1[N+](=O)[O-] | inconclusive: 16.4 µM [cytotoxic, single point] | 
12 | c1ccc(-c2cn3nc4c(nc3n2)CCCC4)cc1 | inconclusive: 20.6 µM [cytotoxic, single point] | 
13 | COc1ccc(/C=N/NC(=O)c2ccn[nH]2)cc1COc1ccc(F)cc1 | inconclusive: 29.1 µM [cytotoxic, single point] | 
14 | c1ccc2c(c1)ncn2-c1ccc(-c2ccnc3ncnn23)cc1 | inconclusive: 29.1 µM [rising, single point] | 
15 | CCC1(C)NC(c2ccc3c(c2)OCO3)=CC(c2ccccc2O)N1 (configuration not stated) | inconclusive: 29.1 µM [rising, single point] | 
16 | COCCN(C(=S)Nc1ccc(Cl)cc1OC)C1CCN(C(C)=O)CC1 |  | inactive: -0.663%
17 | CCOc1ncccc1C(=O)Nc1ncc(C)s1 | inconclusive: 16.4 µM [rising, partial curve, poor fit] | 
18 | CCc1nnc(NS(=O)(=O)c2ccc(N=Cc3c(C)[nH]n(-c4ccc(C)cc4)c3=O)cc2)s1 | inconclusive: 23.1 µM [cytotoxic, single point] | 
19 | CNc1snc(C)c1C(=O)OCC(=O)c1cc(F)ccc1OC |  | inactive: -9.81%
20 | Cc1ccc(CNc2nc(C)nc3sc4c(c23)CCC4)cc1 |  | inactive: -11.4%
21 | O=C(NNC(=S)NC(=O)c1cccs1)c1ccc(NC(=O)c2ccccc2)cc1 | inconclusive: 29.1 µM [cytotoxic, single point] | 
22 | CCC(=O)NC(c1ccc(C)cc1)c1cc(Cl)c2cccnc2c1O (configuration not stated) | inconclusive: 2.31 µM [cytotoxic, full curve, poor fit] | 
23 | O=C1CC(c2ccccc2)CC(O)=C1C=NCCN1CCN(Cc2ccccc2)CC1 (configuration not stated) | inconclusive: 0.651 µM [rising, full curve, poor fit] | 
24 | Cc1sc2ncnc(NCC(O)c3ccc([N+](=O)[O-])cc3)c2c1C (configuration not stated) | inconclusive: 4.61 µM [cytotoxic, full curve] | 

Of the compounds above, two contain an NH in an aromatic ring:
Row | Compound | Potency | activity change, negative = cytotoxic
13 | COc1ccc(/C=N/NC(=O)c2ccn[nH]2)cc1COc1ccc(F)cc1 | inconclusive: 29.1 µM [cytotoxic, single point] | 
18 | CCc1nnc(NS(=O)(=O)c2ccc(N=Cc3c(C)[nH]n(-c4ccc(C)cc4)c3=O)cc2)s1 | inconclusive: 23.1 µM [cytotoxic, single point] | 

Reprinted at random: two records from the list
Row | Compound | Potency | activity change, negative = cytotoxic
23 | O=C1CC(c2ccccc2)CC(O)=C1C=NCCN1CCN(Cc2ccccc2)CC1 (configuration not stated) | inconclusive: 0.651 µM [rising, full curve, poor fit] | 
24 | Cc1sc2ncnc(NCC(O)c3ccc([N+](=O)[O-])cc3)c2c1C (configuration not stated) | inconclusive: 4.61 µM [cytotoxic, full curve] | 

Further compounds.

Row | Compound | Potency | activity change, negative = cytotoxic
25 | O=C1CCNc2c(Cl)cccc21 |  | inconclusive: -2.56%
26 | O=C(c1ccccc1)c1nn(-c2ccccc2)c(=O)cc1C(F)(F)F | inconclusive: 23.1 µM [cytotoxic, partial curve, poor fit] | 
27 | Cc1ccc(-c2nnc(NC(=O)CCS(=O)(=O)c3ccc(F)cc3)o2)c(C)c1 |  | inactive: 18.6%
28 | O=C(Cn1nc2n(c1=O)-c1ccccc1SC2)N/N=C/c1cccnc1 | inconclusive: 29.1 µM [cytotoxic, single point] | 
29 | Cc1occc1-c1nc(-c2ccccn2)no1 | inconclusive: 5.17 µM [cytotoxic, full curve, poor fit] | 
30 | COc1ccc(-c2sc3ccc(N4CCOCC4)cc3c2C#CC2(O)CCCCC2)cc1 | inconclusive: 29.1 µM [cytotoxic, single point] | 
31 | N#CC1=C2SCCN2C(=O)C(C#N)C12CCCCC2 (configuration not stated) | inconclusive: 2.31 µM [cytotoxic, partial curve, poor fit] | 
32 | CN(C)CCNC(=O)c1cccc2ccc(-c3ccc(-c4ccccc4)cc3)nc12 | inconclusive: 18.4 µM [cytotoxic, single point] | 
33 | COc1cc(OC)c(OC)cc1/C=C/c1cc[n+](C)c2ccccc12 | active: 14.6 µM | 
34 | c1ccc(COc2ccccc2CNC23CC4CC(CC(C4)C2)C3)cc1 | inconclusive: 29.1 µM [cytotoxic, single point] | 
35 | Cc1cc(=O)oc2c1c(C)nn2-c1cccc(Cl)c1 | inconclusive: 25.9 µM [cytotoxic, partial curve, poor fit] | 
36 | CCC(=O)N1N=C(c2c(O)n(C)c(=O)n(C)c2=O)CC1c1ccccc1 (configuration not stated) | active: 20.6 µM | 
37 | CC(C)NC(=O)NC(=O)COC(=O)C1(C)CC1(Cl)Cl (configuration not stated) |  | inactive: 1.16%
38 | OCCN=C1CCCc2c1[nH]c1ccc(Cl)cc21 | active: 2.06 µM | 
39 | CCC(=O)NC1=C(NC(C)c2ccccc2)C(=O)c2ccccc2C1=O (configuration not stated) |  | inactive: -7.01%
40 | Cc1ccccc1OCCC(=O)Nc1ccc(N2CCOCC2)cc1N1CCOCC1 |  | inactive: 5.34%
41 | COc1cc(C(=O)NC2CCCc3c2cnn3-c2ccccc2F)cc(OC)c1OC (configuration not stated) | inconclusive: 18.4 µM [cytotoxic, single point] | 
42 | CC(=O)c1cccc(-c2cnc3c(NC=O)cc(-c4ccc(N(C)C)cc4)cn23)c1 | inconclusive: 29.1 µM [cytotoxic, single point] | 
43 | O=C(O)CCNc1nc(-c2ccccc2)nc2ccccc12 |  | inactive: -3.52%
44 | Cc1cc(C(=O)O)ccc1-c1ccc(/C=N/n2cnnc2)o1 |  | inactive: 12.4%
45 | Cn1c(CNC(=O)c2ccc3c(c2)OCO3)nnc1SCC(=O)Nc1ccccc1Cl |  | inactive: 2.09%
46 | COc1cccc(C(=O)C2CCCN(Cc3cccc(OCCO)c3)C2)c1 (configuration not stated) | inconclusive: 32.6 µM [cytotoxic, single point] | 
47 | COc1ccc(-c2csc3ncnc(Nc4ccc(OC)cc4OC)c23)cc1 |  | inactive: 2.29%
48 | COc1ccc(-c2csc(N(CCCN(C)C)C(=O)c3cc(OC)c(OC)c(OC)c3)n2)cc1 |  | inactive: -2.77%

Row | Compound | Potency | activity change, negative = cytotoxic
49 | Cc1cccc(N(C)C(=O)C2CCC(CNS(=O)(=O)c3cccc4nsnc34)CC2)c1 (configuration not stated) | inconclusive: 11.6 µM [cytotoxic, partial curve] | 
50 | CCc1ccc2oc(C(=O)NCc3ccncc3)c(C)c2c1 | inconclusive: 20.6 µM [cytotoxic, partial curve] | 
51 | O=C(O)c1ccccc1C(=O)N1CC=C(c2ccccc2)CC1 |  | inactive: 0%
52 | COc1ccccc1N(CC(O)Cn1c(C)nc2ccccc21)S(=O)(=O)c1ccccc1 (configuration not stated) | inconclusive: 20.6 µM [cytotoxic, single point] | 
53 | O=C1/C(=C/c2cccs2)SC(=S)N1N1CCOCC1 |  | inconclusive: 7.37%
54 | CC(C)(C)OC(=O)[C@H](Cc1ccccc1)NC(=O)c1[nH]cnc1C(=O)Nc1ccc(Cl)cc1 | inconclusive: 23.1 µM [cytotoxic, single point] | 
55 | COc1cc(/C=C/C(=O)NC(=O)c2ccccc2O)ccc1O |  | inactive: 7.41%
56 | Cc1ccc(N=Nc2ccc(O)c3ncccc23)cc1C | inconclusive: 2.59 µM [cytotoxic, partial curve, poor fit] | 
57 | CCOC(=O)c1cccc(NC(=O)c2c(N)n(C)c(=O)[nH]c2=O)c1 |  | inactive: 26.9%
58 | CCCn1cnc2scc(-c3ccc(OC)cc3)c2c1=O |  | inactive: 9.07%
59 | CC(C)c1ccc([C@@H]2O[C@H](C)CC3=C2C(=O)OC(C)(C)O3)cc1 |  | inactive: 11.2%
60 | Cc1c(C(=O)NC(=S)Nc2cccnc2)cccc1[N+](=O)[O-] |  | inactive: -1.1%
61 | N#Cc1c(SCC(=O)Nc2nncs2)sc2c(O)cc(=O)[nH]c12 |  | inactive: 4.69%
62 | Cc1cccc(NC(=O)CCCN2C(=O)C3CC=CCC3C2=O)c1 (configuration not stated) | inconclusive: 29.1 µM [rising, single point] | 
63 | c1csc(-c2nn3c(Cn4nnc5ccccc54)nnc3s2)c1 | inconclusive: 32.6 µM [rising, partial curve, poor fit] | 
64 | Fc1cccc(CSc2nc3ncc(Cl)cc3[nH]2)c1 | inconclusive: 0.651 µM [rising, full curve, poor fit] | 
65 | COc1ccccc1C(=O)Nc1ccc(S(=O)(=O)N2CCC(C)CC2)cc1 | inconclusive: 20.6 µM [cytotoxic, single point] | 
66 | CCOC(=O)N1CCN(C(=O)CCS(=O)(=O)c2cc3c(cc2Cl)NC(=O)CO3)CC1 | inconclusive: 29.1 µM [cytotoxic, single point] | 
67 | COc1cc(/C=C2/SC(=S)N(CCC(=O)N3CCN(C)CC3)C2=O)cc(OC)c1OC |  | inactive: 2.11%
68 | Cc1ccc(S(=O)(=O)Nc2ccccc2CNc2ccccn2)cc1 | inconclusive: 29.1 µM [cytotoxic, partial curve, poor fit] | 
69 | NC(N)=N/N=C/c1cc([N+](=O)[O-])ccc1O |  | inactive: -5.99%
70 | Cc1cc(NC(=O)Cc2c(F)cccc2Cl)no1 |  | inactive: -3.05%
71 | CCN1CCCC1CNC(=O)c1cc2c(-c3ccc(Cl)cc3)nn(C)c2s1 (configuration not stated) | inconclusive: 9.2 µM [cytotoxic, partial curve] | 
72 | COC(=O)[C@@]12C[C@@H](CC(=O)NCc3cccc(C(F)(F)F)c3)C(=O)N(Cc3ccccc3)C1=CCC(C)(C)C2 | inconclusive: 18.4 µM [cytotoxic, single point] | 
